This note sets out measurements from patent publication US7485456.

No constants are given. Whether binding was seen depends on the method and setting. Binding seen in cells or lysates may run through a third protein. Some entries that bind do so weakly or less than the wild type. Sequences can lack the tags named with a protein.

For this experiment, the target named is T1, FLAG/B6/TRAF2 (TRAF2 tagged with FLAG, expressed in HeLa-Bujard cells) (human), Q12933.
T1 chain: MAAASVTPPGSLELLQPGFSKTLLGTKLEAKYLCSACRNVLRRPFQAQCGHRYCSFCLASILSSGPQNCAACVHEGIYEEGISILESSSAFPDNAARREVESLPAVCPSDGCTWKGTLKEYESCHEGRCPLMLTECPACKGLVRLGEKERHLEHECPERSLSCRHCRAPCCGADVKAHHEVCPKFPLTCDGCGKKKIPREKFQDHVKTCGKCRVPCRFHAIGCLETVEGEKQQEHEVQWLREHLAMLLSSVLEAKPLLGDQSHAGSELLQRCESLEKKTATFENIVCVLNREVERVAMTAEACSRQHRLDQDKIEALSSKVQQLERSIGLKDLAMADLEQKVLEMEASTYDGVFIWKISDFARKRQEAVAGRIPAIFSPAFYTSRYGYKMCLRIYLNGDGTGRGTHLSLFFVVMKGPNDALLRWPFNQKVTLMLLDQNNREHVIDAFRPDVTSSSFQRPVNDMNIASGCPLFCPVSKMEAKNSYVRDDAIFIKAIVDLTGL
Kind of experiment: co-immunoprecipitation from co-transfected HeLa-Bujard cells, SDS-PAGE, autoradiography. The settings on record: remark: other sources report otherwise.

B1: full-length NIK (NF-kB inducing kinase), Q99558 1-947 (enzyme)
chain: MAVMEMACPGAPGSAVGQQKELPKPKEKTPPLGKKQSSVYKLEAVEKSPVFCGKWEILNDVITKGTAKEGSEAGPAAISIIAQAECENSQEFSPTFSERIFIAGSKQYSQSESLDQIPNNVAHATEGKMARVCWKGKRRSKARKKRKKKSSKSLAHAGVALAKPLPRTPEQESCTIPVQEDESPLGAPYVRNTPQFTKPLKEPGLGQLCFKQLGEGLRPALPRSELHKLISPLQCLNHVWKLHHPQDGGPLPLPTHPFPYSRLPHPFPFHPLQPWKPHPLESFLGKLACVDSQKPLPDPHLSKLACVDSPKPLPGPHLEPSCLSRGAHEKFSVEEYLVHALQGSVSSSQAHSLTSLAKTWAARGSRSREPSPKTEDNEGVLLTEKLKPVDYEYREEVHWATHQLRLGRGSFGEVHRMEDKQTGFQCAVKKVRLEVFRAEELMACAGLTSPRIVPLYGAVREGPWVNIFMELLEGGSLGQLVKEQGCLPEDRALYYLGQALEGLEYLHSRRILHGDVKADNVLLSSDGSHAALCDFGHAVCLQPDGLGKSLLTGDYIPGTETHMAPEVVLGRSCDAKVDVWSSCCMMLHMLNGCHPWTQFFRGPLCLKIASEPPPVREIPPSCAPLTAQAIQEGLRKEPIHRVSAAELGGKVNRALQQVGGLKSPWRGEYKEPRHPPPNQANYHQTLHAQPRELSPRAPGPRPAEETTGRAPKLQPPLPPEPPEPNKSPPLTLSKEESGMWEPLPLSSLEPAPARNPSSPERKATVPEQELQQLEIELFLNSLSQPFSLEEQEQILSCLSIDSLSLSDDSEKNPSKASQSSRDTLSSGVHSWSSQAEARSSSWNMVLARGRPTDTPSYFNGVKVQIQSLNGEHLHIREFHRVKVGDIATGISSQIPAAAFSLVTKDGQPVRYDMEVPDSGIDLQCTLAPDGSFAWSWRVKHGQLENRP
B1: the binding entry is listed as “binds”.
